This is an account of results in PMC12136450 (PLOS Biology, 2025).

No constants are given. Whether binding was seen depends on the method and setting. Some binding calls cover weakened binding; strength is not graded here. For part of these data: Tags and fused reporters may be left off the sequences shown.

In assay [1] the target is T1, strep-tagged Cpi1 (wild type) (Escherichia coli strain ATCC 11775) (UniProt P0DXY0).
T1 sequence: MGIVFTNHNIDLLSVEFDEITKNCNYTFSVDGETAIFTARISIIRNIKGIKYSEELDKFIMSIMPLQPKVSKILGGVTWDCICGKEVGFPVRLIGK
Briefly: pull-down; both purified.

Assay [2] concerns the target T2, Cpi1 (cognate immunity protein of Cpe1), co-expressed with Cpe1tox (Escherichia coli strain ATCC 11775) (UniProt P0DXY0).
T2 sequence: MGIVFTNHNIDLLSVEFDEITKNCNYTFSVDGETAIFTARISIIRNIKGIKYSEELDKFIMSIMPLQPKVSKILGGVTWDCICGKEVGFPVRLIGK
Briefly: crystal structure; both purified.

Assay [3] has as its target T3, His-tagged Cpe1tox^C362A (catalytically inactive toxin domain) (Escherichia coli strain ATCC 11775) (UniProt P0DXX9).
T3 sequence: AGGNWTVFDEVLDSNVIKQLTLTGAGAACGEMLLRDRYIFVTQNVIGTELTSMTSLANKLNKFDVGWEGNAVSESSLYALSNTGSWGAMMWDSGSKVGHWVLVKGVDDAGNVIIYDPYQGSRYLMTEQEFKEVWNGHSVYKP
Briefly: pull-down; […]; 20 mM Tris-HCl pH 7, 300 mM NaCl, 1 mM DTT; […]; both purified.

Regarding “Cpe1tox (toxin domain of cysteine protease effector 1), His-tagged (from UniProt P0DXX9 338-479) (domain or fragment)”, the binding entry in assay [1] and in assay [2] was “binds” each time.

B1: strep-tagged Cpi1 (wild type) (natural protein)
chain: MGIVFTNHNIDLLSVEFDEITKNCNYTFSVDGETAIFTARISIIRNIKGIKYSEELDKFIMSIMPLQPKVSKILGGVTWDCICGKEVGFPVRLIGK
notes: source: E. coli BL21 (DE3), pETDuet-1, purified (streptavidin resin, gel filtration)
Take B1: the binding result in assay [3] was “binds”.
